The target in assay [1] is T1, recombinant human Sept2 (human) (UniProt Q15019).
T1 sequence: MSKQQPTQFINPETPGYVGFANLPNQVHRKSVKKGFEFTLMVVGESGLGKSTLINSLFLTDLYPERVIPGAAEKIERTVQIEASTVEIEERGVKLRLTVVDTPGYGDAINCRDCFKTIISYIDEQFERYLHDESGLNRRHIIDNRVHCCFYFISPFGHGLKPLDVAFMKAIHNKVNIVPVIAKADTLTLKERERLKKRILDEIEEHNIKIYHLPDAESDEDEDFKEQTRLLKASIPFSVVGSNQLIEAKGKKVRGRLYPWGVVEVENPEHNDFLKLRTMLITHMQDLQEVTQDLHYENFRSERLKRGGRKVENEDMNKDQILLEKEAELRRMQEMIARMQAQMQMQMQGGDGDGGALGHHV
Description: co-purification of a recombinant complex + native gel or EMSA.

The target in assay [2] is T2, recombinant human Sept6 (human) (UniProt Q14141).
T2 sequence: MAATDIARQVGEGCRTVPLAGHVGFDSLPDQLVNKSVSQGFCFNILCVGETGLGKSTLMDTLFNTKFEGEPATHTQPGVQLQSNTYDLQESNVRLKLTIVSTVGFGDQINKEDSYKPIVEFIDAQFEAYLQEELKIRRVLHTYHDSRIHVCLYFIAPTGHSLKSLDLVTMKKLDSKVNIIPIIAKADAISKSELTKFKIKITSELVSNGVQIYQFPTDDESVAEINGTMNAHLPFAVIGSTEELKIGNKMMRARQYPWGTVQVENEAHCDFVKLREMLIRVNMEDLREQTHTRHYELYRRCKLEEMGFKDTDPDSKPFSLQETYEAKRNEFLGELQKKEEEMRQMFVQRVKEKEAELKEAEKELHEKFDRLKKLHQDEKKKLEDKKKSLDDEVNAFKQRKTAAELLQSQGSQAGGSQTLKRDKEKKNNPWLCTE
The description is as above.

For assay [3], the target named is T3, endogenous Sept7 (human (endogenous in U2OS, HeLa, RPE1, SKBr3)) (UniProt Q16181).
T3 sequence: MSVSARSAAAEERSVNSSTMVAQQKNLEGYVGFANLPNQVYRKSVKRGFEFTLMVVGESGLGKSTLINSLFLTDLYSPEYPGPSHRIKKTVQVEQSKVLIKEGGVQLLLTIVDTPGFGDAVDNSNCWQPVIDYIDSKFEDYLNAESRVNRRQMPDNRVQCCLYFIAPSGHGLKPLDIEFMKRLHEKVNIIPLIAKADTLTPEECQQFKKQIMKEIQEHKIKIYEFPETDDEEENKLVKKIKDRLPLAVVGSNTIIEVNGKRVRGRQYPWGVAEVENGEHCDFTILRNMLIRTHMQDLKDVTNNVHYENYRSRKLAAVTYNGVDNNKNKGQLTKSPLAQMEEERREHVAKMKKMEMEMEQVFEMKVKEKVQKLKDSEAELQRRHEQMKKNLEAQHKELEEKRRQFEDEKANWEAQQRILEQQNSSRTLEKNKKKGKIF
The assay can be described thus: native gel or EMSA. In general terms: A gel shift assay detects complexes by their altered migration in electrophoresis.

Assay [4] has as its target T4, recombinant human Sept7 (human) (UniProt Q16181).
T4 sequence: T3 sequence
The assay can be described thus: co-purification of a recombinant complex + native gel or EMSA.

Assay [5] has as its target T5, wild type Sept9_i1-GFP (human), Q9UHD8.
T5 chain: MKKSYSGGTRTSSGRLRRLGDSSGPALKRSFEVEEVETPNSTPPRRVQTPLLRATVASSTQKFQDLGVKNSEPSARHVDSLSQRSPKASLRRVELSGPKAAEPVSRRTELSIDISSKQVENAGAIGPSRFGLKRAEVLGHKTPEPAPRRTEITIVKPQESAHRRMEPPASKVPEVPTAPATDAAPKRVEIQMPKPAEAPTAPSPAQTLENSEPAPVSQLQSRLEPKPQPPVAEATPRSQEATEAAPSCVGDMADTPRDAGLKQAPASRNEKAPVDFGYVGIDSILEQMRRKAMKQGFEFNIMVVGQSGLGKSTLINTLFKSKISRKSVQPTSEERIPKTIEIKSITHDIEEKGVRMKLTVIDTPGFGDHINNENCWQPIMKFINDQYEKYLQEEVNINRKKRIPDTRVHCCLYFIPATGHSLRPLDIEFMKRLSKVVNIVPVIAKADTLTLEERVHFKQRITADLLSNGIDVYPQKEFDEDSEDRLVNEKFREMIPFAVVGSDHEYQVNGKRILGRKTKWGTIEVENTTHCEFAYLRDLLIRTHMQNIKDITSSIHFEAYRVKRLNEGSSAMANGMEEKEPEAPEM
Description: native gel or EMSA. Conditions: remark: other sources report otherwise.

The target of assay [6] is T6, recombinant human Sept9_i1 (human), Q9UHD8.
T6 chain: T5 chain
The assay can be described thus: co-purification of a recombinant complex + native gel or EMSA. To be noted: remark: other sources report otherwise.

These are yes or no findings as the source states them, for the method shown. Some binding calls cover weakened binding; strength is not graded here. For some of these results: Where a sequence is shown, tags or fusion partners need not be part of it.

This note sets out measurements from doi:10.1101/2021.04.06.438596.

B1: recombinant human Sept6 (protein, UniProt Q14141 1-434)
chain: T2 sequence
With B1, the binding entry in assay [1] is “binds”.

B2: recombinant human Sept7 (protein, UniProt Q16181 1-437)
chain: T3 sequence
Take B2: the binding result in assay [2] is recorded as “binds”.

B3: endogenous Sept9 (long isoforms, detected with a pan Sept9 antibody) (protein, UniProt Q9UHD8 1-586)
chain: T5 chain
For B3, in assay [3], the binding entry is “binds”.

B4: recombinant human Sept9_i1 (protein, UniProt Q9UHD8 1-586)
chain: T5 chain
For the molecule B4, the binding result in assay [4] is “binds”.

B5: wild type Sept9_i1-GFP, Q9UHD8 1-586 (protein)
chain: T5 chain
With B5, the binding result in assay [5] is given as “binds”.

B6: recombinant human Sept9_i1, Q9UHD8 1-586 (protein)
chain: T5 chain
For B6, the binding result in assay [6] was “binds”.

B7: endogenous Sept8 (protein, UniProt Q92599 1-483)
chain: MAATDLERFSNAEPEPRSLSLGGHVGFDSLPDQLVSKSVTQGFSFNILCVGETGIGKSTLMNTLFNTTFETEEASHHEACVRLRPQTYDLQESNVQLKLTIVDAVGFGDQINKDESYRPIVDYIDAQFENYLQEELKIRRSLFDYHDTRIHVCLYFITPTGHSLKSLDLVTMKKLDSKVNIIPIIAKADTISKSELHKFKIKIMGELVSNGVQIYQFPTDDEAVAEINAVMNAHLPFAVVGSTEEVKVGNKLVRARQYPWGVVQVENENHCDFVKLREMLIRVNMEDLREQTHSRHYELYRRCKLEEMGFQDSDGDSQPFSLQETYEAKRKEFLSELQRKEEEMRQMFVNKVKETELELKEKERELHEKFEHLKRVHQEEKRKVEEKRRELEEETNAFNRRKAAVEALQSQALHATSQQPLRKDKDKKNRSDIGAHQPGMSLSSSKVMMTKASVEPLNCSSWWPAIQCCSCLVRDATWREGFL
On to B7, for which, in assay [3], the binding result is given as “binds”.
